Data reported in paper PMC4505335, “Selective targeting of PPARγ by the natural product chelerythrine with a unique binding mode and improved antidiabetic potency” (Scientific Reports, 2015).
Results are given in words; binding and its absence hold for the method and conditions named. Some results given as binding are weak or reduced against the parent protein; the word gives no strength.

T1: Human PPARγ LBD (residues 206–477) (human, UniProt P37231-2 206-477)
T1 construct: The tag is detected in the AlphaScreen (hexahistidine detection kit); also called NR1C3; source: E. coli BL21(DE3), purified (Ni HiTrap HP, SP-Sepharose); not shown: His6, N-terminal, kept
T1 sequence (looked up): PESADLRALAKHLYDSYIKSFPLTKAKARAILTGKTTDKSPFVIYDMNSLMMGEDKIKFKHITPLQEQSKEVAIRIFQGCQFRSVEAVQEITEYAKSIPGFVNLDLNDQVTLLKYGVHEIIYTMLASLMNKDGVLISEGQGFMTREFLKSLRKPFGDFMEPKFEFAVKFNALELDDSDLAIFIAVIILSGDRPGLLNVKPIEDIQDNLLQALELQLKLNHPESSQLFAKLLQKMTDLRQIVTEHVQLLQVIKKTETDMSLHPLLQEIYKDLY


Key:
[1] = target: T1, Human PPARγ LBD (residues 206–477); assay: AlphaScreen or HTRF; hexahistidine detection kit; about 20–40 nmol/l His6-PPARγ LBD and 20 nmol/l biotinylated peptide, 5 μg/ml donor and acceptor beads; 50 mmol/l MOPS, 50 mmol/l NaF, 0.05 mmol/l CHAPS, 0.1 mg/ml BSA, pH 7.4; with chelerythrine (5 μmol/l, and dose curves); both purified
[2] = target: T1, Human PPARγ LBD (residues 206–477); assay: AlphaScreen or HTRF; hexahistidine detection kit; about 20–40 nmol/l His6-PPARγ LBD and 20 nmol/l biotinylated peptide, 5 μg/ml donor and acceptor beads; 50 mmol/l MOPS, 50 mmol/l NaF, 0.05 mmol/l CHAPS, 0.1 mg/ml BSA, pH 7.4; with rosiglitazone (1 μmol/l, and dose curves); both purified

binding [1] | binding [2] | Binder
binds weakly |  | QEPVSPKKKENALLRYLLDKDDTKD (N-terminal biotinylation) [SRC2 coactivator peptide, N-terminally biotinylated]
binds weakly |  | SPSSHSSLTERHKILHRLLQEGSP (N-terminal biotinylation) [SRC1 coactivator peptide, N-terminally biotinylated]
binds weakly | binds | PDAASKHKQLSELLRGGSG (N-terminal biotinylation) [SRC3 coactivator peptide, N-terminally biotinylated]
